# Measurements taken from the supplement of paper PMC10849652.
# By UniProt entry, the sequences of proteins in these tests, tags left out. Where a name states a change or a piece, a line headed by the entry shows the natural chain unless it says otherwise.
# UniProt O95168, whole entry, looked up: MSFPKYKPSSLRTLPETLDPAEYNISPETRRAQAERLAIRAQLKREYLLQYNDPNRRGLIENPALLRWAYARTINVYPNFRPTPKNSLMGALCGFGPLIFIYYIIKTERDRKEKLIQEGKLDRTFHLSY
# UniProt Q8N5F7: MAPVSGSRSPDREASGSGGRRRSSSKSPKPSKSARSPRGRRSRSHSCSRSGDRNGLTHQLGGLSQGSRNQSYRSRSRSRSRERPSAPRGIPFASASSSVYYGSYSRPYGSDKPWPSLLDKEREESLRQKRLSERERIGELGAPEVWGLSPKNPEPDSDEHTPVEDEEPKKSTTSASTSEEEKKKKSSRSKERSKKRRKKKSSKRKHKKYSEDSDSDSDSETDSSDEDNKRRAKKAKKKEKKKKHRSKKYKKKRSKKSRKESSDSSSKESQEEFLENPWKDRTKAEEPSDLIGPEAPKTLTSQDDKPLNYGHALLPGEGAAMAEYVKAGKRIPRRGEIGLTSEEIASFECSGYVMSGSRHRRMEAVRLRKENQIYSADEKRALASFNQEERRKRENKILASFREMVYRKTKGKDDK
# UniProt Q9P0J0, whole entry, looked up: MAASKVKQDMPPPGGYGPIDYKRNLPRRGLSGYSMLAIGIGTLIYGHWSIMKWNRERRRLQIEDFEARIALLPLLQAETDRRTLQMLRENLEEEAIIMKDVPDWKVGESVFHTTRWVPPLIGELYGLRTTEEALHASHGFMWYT
# UniProt Q9UMS0: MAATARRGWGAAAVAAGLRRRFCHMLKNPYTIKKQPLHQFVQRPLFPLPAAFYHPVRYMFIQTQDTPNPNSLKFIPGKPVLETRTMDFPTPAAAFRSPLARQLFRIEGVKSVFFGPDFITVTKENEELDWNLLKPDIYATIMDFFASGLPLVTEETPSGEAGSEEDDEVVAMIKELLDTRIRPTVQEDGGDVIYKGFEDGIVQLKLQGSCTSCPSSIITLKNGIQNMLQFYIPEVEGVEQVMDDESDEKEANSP
# UniProt Q8TD19: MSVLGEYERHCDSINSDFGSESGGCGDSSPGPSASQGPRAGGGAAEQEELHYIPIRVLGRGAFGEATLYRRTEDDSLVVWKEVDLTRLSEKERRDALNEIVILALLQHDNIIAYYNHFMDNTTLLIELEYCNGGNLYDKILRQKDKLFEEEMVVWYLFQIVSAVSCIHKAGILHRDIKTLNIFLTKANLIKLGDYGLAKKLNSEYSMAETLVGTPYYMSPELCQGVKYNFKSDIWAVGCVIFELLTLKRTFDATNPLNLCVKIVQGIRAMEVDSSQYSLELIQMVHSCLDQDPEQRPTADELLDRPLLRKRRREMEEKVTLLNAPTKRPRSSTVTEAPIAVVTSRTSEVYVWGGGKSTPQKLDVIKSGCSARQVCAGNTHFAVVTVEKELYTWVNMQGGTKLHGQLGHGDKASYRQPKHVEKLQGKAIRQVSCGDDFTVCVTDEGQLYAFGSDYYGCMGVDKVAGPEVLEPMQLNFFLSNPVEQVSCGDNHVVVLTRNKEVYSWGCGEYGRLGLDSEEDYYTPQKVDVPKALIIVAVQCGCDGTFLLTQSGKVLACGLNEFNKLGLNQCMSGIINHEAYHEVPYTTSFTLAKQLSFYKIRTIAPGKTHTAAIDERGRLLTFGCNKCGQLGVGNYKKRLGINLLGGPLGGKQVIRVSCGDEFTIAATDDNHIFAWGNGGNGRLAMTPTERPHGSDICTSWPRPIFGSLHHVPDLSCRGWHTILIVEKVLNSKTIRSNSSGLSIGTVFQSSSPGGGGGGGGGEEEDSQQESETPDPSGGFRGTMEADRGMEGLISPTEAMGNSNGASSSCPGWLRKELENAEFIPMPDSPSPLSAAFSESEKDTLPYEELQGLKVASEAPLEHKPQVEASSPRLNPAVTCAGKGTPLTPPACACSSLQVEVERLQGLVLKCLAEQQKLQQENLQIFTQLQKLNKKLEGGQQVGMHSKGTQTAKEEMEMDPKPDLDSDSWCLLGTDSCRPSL
# UniProt Q8NCF5: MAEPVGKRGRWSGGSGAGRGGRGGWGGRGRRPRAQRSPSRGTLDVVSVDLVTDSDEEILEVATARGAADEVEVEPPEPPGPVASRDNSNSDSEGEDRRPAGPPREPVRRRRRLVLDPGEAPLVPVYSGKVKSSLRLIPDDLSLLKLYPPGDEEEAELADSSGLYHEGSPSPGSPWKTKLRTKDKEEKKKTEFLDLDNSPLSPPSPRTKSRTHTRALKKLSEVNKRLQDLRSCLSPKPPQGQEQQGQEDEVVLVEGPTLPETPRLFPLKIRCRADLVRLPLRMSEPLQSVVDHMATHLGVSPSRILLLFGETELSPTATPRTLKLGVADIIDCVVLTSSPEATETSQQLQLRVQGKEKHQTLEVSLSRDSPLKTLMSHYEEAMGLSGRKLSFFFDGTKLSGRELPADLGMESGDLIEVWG
# UniProt Q9BYT8, whole entry, looked up: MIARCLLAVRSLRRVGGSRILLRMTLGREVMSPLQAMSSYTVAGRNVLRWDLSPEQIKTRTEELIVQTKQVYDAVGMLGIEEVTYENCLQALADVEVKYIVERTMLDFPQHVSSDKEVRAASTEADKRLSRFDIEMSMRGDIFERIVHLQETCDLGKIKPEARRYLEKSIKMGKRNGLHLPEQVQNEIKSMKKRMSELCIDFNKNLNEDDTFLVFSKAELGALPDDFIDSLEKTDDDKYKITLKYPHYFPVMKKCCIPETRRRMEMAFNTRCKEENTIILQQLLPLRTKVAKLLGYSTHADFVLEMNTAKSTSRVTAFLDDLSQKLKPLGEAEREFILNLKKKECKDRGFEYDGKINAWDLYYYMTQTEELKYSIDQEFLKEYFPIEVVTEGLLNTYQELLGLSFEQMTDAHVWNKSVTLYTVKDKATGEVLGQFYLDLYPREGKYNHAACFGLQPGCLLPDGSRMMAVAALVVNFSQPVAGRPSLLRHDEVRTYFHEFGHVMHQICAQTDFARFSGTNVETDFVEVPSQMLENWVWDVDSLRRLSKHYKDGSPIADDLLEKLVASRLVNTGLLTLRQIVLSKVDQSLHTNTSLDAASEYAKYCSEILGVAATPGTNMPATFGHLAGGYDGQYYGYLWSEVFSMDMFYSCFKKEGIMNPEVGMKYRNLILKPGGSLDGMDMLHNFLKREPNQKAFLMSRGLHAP
# UniProt P17568, whole entry, looked up: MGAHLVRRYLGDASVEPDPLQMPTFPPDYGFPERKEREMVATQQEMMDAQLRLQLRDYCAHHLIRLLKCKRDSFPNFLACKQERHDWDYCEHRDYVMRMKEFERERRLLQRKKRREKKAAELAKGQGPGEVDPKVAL
# UniProt Q7L592: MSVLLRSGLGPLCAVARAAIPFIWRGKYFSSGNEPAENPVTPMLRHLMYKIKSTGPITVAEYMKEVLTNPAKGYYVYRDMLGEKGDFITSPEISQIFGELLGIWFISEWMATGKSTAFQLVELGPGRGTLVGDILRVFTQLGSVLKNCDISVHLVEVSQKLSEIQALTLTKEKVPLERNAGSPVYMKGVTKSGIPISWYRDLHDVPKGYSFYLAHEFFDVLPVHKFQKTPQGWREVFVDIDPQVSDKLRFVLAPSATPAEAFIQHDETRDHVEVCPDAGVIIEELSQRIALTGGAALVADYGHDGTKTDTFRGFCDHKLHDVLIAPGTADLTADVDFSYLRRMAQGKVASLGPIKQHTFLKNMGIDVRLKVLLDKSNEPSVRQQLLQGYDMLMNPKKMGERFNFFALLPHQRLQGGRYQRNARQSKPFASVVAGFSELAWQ
# UniProt Q15843, whole entry, looked up: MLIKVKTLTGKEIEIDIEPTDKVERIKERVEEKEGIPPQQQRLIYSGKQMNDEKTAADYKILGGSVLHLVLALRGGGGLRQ
# UniProt Q9NYR9: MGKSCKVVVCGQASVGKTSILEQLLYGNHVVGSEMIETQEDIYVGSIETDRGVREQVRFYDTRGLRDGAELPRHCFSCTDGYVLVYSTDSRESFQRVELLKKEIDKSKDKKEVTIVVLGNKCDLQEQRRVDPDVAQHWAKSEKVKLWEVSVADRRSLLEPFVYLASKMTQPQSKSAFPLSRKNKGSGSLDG
# UniProt Q13952: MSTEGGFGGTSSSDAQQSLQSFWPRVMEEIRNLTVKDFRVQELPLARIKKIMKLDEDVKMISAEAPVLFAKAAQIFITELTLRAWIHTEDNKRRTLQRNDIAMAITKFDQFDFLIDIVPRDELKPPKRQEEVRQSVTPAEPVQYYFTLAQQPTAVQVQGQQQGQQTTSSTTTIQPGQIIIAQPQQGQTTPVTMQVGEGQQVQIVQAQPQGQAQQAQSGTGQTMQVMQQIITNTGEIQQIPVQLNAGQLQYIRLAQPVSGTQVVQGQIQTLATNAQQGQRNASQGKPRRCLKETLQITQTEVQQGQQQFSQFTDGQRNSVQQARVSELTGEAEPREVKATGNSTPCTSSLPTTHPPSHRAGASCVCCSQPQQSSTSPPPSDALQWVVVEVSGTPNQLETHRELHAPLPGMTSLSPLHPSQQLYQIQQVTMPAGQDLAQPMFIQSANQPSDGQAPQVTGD
# UniProt O95299, whole entry, looked up: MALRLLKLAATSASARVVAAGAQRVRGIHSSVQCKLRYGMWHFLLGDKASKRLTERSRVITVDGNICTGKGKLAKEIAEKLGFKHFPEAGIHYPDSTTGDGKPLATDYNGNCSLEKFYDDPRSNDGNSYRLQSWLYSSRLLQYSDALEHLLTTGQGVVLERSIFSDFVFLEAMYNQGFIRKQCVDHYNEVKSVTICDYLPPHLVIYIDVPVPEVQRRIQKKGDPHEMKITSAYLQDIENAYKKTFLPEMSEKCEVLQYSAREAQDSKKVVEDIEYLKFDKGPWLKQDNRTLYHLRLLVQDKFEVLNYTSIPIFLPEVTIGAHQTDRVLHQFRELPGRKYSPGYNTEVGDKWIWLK
# UniProt O00483, whole entry, looked up: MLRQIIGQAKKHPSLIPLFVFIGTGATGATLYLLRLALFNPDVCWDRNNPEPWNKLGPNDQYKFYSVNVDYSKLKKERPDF
# UniProt Q9UN36: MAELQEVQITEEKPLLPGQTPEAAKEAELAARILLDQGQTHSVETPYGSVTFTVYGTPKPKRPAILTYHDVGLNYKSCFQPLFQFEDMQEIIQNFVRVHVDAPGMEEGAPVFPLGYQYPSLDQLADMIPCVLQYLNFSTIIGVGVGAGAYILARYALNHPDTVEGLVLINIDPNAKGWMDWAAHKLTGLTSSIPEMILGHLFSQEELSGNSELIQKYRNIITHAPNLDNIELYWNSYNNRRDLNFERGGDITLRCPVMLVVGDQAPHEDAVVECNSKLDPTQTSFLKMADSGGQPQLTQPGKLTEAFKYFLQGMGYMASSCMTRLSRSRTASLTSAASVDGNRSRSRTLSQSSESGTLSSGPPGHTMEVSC
# The other results are listed elsewhere or left out.
# Columns and labels:
# Test in all cases: log2 fold change, soluble protein after heating vs DMSO (PISA); higher = thermal stabilisation; K562 lysate, 10 uM; active = over 0.2 and 3.5 SD of the protein, either way, in both replicates (recomputed)
# [1] = compound: CS(=O)(=O)CCNCc1ccc(-c2ccc3ncnc(Nc4ccc(OCc5cccc(F)c5)c(Cl)c4)c3c2)o1 [lapatinib]
# In short: (§1)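 Dounce homogenisation of K562 pellets in PBS pH 7.4 with 1 mM MgCl2 produced a crude extract, used at 1 mg/mL protein. Exposure to 10 μM compound lasted 30 min, and aliquots were then heated for 3 min across 48°C-58°C, pooled and brought to 0.5% NP-40 at 4°C. The supernatant after 21,000xg for 90 min was quantified by TMTpro 16plex LC-MS/MS with channel sums equalised. Duplicate values are given as log-two fold change in thermal stability relative to solvent controls.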
# [2] = compound: CS(=O)(=O)N1CCN(Cc2cc3nc(-c4cccc5[nH]ncc45)nc(N4CCOCC4)c3s2)CC1 [pictilisib]
# In short: as §1
# [3] = compound: C[C@@H](Oc1cc(-c2cnn(C3CCNCC3)c2)cnc1N)c1c(Cl)ccc(F)c1Cl [crizotinib]
# In short: as §1
# [4] = compound: C[C@H](C1=CC=C(C=C1)C(=O)NC2=C3C=CNC3=NC=C2)N
# In short: as §1
# [5] = compound: C[C@H](Nc1ncnc2nc[nH]c12)c1cc2cccc(Cl)c2c(=O)n1-c1ccccc1 [duvelisib]
# In short: as §1
# [6] = compound: Cc1cc(Nc2cc(CN3CCOCC3)c3nc(C)c(Cc4ccc(Cl)cc4F)n3n2)n[nH]1 [gandotinib]
# In short: as §1
# [7] = compound: Cc1cc(Nc2cc(N3CCN(C)CC3)nc(Sc3ccc(NC(=O)C4CC4)cc3)n2)n[nH]1 [tozasertib]
# In short: as §1
# [8] = compound: Cc1ccc(-n2nc(C(C)(C)C)cc2NC(=O)Nc2ccc(OCCN3CCOCC3)c3ccccc23)cc1 [doramapimod]
# In short: as §1
# [9] = compound: Cc1ccc(NC(=O)c2ccc(CN3CC[C@H](N(C)C)C3)c(C(F)(F)F)c2)cc1Nc1nccc(-c2cncnc2)n1 [bafetinib]
# In short: as §1
# [10] = compound: Cc1cccc(CC(=O)N2CCc3c2ccc(-c2cn(C)c4ncnc(N)c24)c3F)n1
# In short: as §1
# [11] = compound: Cc1cn(-c2cc(NC(=O)c3ccc(C)c(Nc4nccc(-c5cccnc5)n4)c3)cc(C(F)(F)F)c2)cn1 [nilotinib]
# In short: as §1
# [12] = compound: Cc1nc(Nc2n[nH]c3c2CN(C(=O)N[C@H](CN(C)C)c2ccccc2)C3(C)C)c2sccc2n1
# In short: as §1
# [13] = compound: Cc1nc(Nc2ncc(C(=O)Nc3c(C)cccc3Cl)s2)cc(N2CCN(CCO)CC2)n1 [dasatinib]
# In short: as §1
# [14] = compound: Cc1ncc(-c2ccnc(Nc3ccc(S(C)(=O)=O)cc3)n2)n1C(C)C
# In short: as §1
# [15] = compound: Cn1cc(-c2ccc3c(c2)CCN3C(=O)Cc2cccc(C(F)(F)F)c2)c2c(N)ncnc21
# In short: as §1
# [16] = compound: Cn1cc(CNCC2CCN(c3ncc(C(=O)NO)cn3)CC2)c2ccccc21 [quisinostat]
# In short: as §1
# [17] = compound: Cn1cncc1[C@@](N)(c1ccc(Cl)cc1)c1ccc2c(c1)c(-c1cccc(Cl)c1)cc(=O)n2C [tipifarnib]
# In short: as §1
# [18] = compound: NC(=O)Nc1cc(-c2cccc(F)c2)sc1C(=O)N[C@H]1CCCNC1
# In short: as §1
# [19] = compound: NC(=O)c1cnc(N[C@@H]2CCCC[C@@H]2N)nc1Nc1cccc(-n2nccn2)c1
# In short: as §1
# [20] = compound: NC1(c2ccc(-c3nc4ccn5c(=O)[nH]nc5c4cc3-c3ccccc3)cc2)CCC1
# In short: as §1
Target,log2 fold change [1],log2 fold change [2],log2 fold change [3],log2 fold change [4],log2 fold change [5],log2 fold change [6],log2 fold change [7],log2 fold change [8],log2 fold change [9],log2 fold change [10],log2 fold change [11],log2 fold change [12],log2 fold change [13],log2 fold change [14],log2 fold change [15],log2 fold change [16],log2 fold change [17],log2 fold change [18],log2 fold change [19],log2 fold change [20]
NDUFB4 (UniProt O95168),inactive: -0.054,inactive: 0.192,inactive: 0.047,inactive: 0.202,inactive: -0.046,inactive: -0.168,inactive: -0.063,inactive: -0.072,inactive: 0.157,inactive: -0.17,inactive: -0.018,inactive: -0.011,inactive: 0.031,inactive: -0.019,inactive: -0.035,inactive: 0.059,inactive: 0.019,inactive: 0.013,inactive: 0.014,inactive: -0.038
NKAP (UniProt Q8N5F7),inactive: -0.022,inactive: 0.018,inactive: 0.048,inactive: -0.024,inactive: -0.05,inactive: 0.007,inactive: 0.091,inactive: 0.006,inactive: -0.028,inactive: 0.014,inactive: 0.034,inactive: 0.06,inactive: -0.047,inactive: -0.088,inactive: -0.086,inactive: -0.049,inactive: -0.028,inactive: -0.034,inactive: 0,inactive: -0.034
NDUFA13 (UniProt Q9P0J0),inactive: -0.042,inactive: -0.021,inactive: -0.008,inactive: -0.019,inactive: -0.018,inactive: -0.004,inactive: -0.02,inactive: 0.002,inactive: -0.02,inactive: 0.03,inactive: -0.014,inactive: -0.024,inactive: -0.066,inactive: 0.033,inactive: -0.038,inactive: 0.098,inactive: 0.021,inactive: -0.027,inactive: -0.004,inactive: 0.004
NFU1 (UniProt Q9UMS0),inactive: 0.026,inactive: 0,inactive: 0.011,inactive: 0.077,inactive: -0.015,inactive: -0.044,inactive: -0.003,inactive: -0.053,inactive: -0.002,inactive: -0.076,inactive: 0.027,inactive: -0.024,inactive: 0.021,inactive: 0.012,inactive: -0.031,inactive: 0.036,inactive: 0.067,inactive: -0.012,inactive: -0.003,inactive: -0.008
NEK9 (UniProt Q8TD19),inactive: -0.013,inactive: 0.039,inactive: 0.057,inactive: -0.092,inactive: 0.006,inactive: 0.108,inactive: 0.025,inactive: -0.033,inactive: 0.014,inactive: 0.019,inactive: -0.024,inactive: 0.13,inactive: -0.002,inactive: 0.007,inactive: 0.001,inactive: -0.042,inactive: -0.018,inactive: 0.033,inactive: 0.003,inactive: -0.026
NFATC2IP (UniProt Q8NCF5),inactive: 0.002,inactive: -0.091,inactive: 0.027,inactive: 0.059,inactive: -0.067,inactive: 0.039,inactive: -0.035,inactive: 0.001,inactive: -0.169,inactive: -0.018,inactive: 0.027,inactive: -0.015,inactive: 0.071,inactive: -0.055,inactive: 0.005,inactive: 0.019,inactive: 0.061,inactive: 0,inactive: -0.015,inactive: 0.03
NLN (UniProt Q9BYT8),inactive: -0.002,inactive: -0.021,inactive: 0.002,inactive: 0.078,inactive: 0.016,inactive: -0.06,inactive: 0.007,inactive: 0.021,inactive: -0.032,inactive: -0.069,inactive: 0.029,inactive: 0,inactive: 0.004,inactive: -0.002,inactive: -0.001,inactive: -0.006,inactive: 0.002,inactive: -0.01,inactive: -0.01,inactive: 0
NDUFB7 (UniProt P17568),inactive: 0.034,inactive: 0.074,inactive: -0.071,inactive: 0.241,inactive: -0.055,inactive: -0.038,inactive: 0.125,inactive: -0.015,inactive: 0.046,inactive: -0.078,inactive: 0.229,inactive: 0.015,inactive: 0.034,inactive: -0.112,inactive: -0.042,inactive: -0.014,inactive: -0.067,inactive: 0.009,inactive: 0.031,inactive: -0.038
NDUFAF7 (UniProt Q7L592),inactive: 0.035,inactive: -0.045,inactive: -0.047,inactive: 0.027,inactive: -0.07,inactive: -0.065,inactive: 0.074,inactive: 0.016,inactive: 0.006,inactive: -0.012,inactive: 0.068,inactive: -0.06,inactive: 0,inactive: 0.016,inactive: -0.026,inactive: 0.002,inactive: -0.01,inactive: 0.01,inactive: -0.03,inactive: 0.014
NEDD8 (UniProt Q15843),inactive: 0.04,inactive: 0.028,inactive: 0.041,inactive: 0.19,inactive: 0.019,inactive: -0.062,inactive: 0.06,inactive: -0.049,inactive: -0.117,inactive: -0.107,inactive: 0.004,inactive: -0.073,inactive: 0.027,inactive: 0.103,inactive: -0.034,inactive: 0.034,inactive: 0.066,inactive: -0.038,inactive: -0.057,inactive: 0.018
NKIRAS2 (UniProt Q9NYR9),inactive: 0.042,inactive: 0.027,inactive: -0.068,inactive: 0.017,inactive: -0.019,inactive: -0.157,inactive: -0.025,inactive: 0.034,inactive: -0.082,inactive: 0.085,inactive: -0.088,inactive: -0.175,inactive: -0.012,inactive: -0.023,inactive: -0.078,inactive: -0.18,inactive: 0.044,inactive: 0.071,inactive: 0.003,inactive: 0.02
NFYC (UniProt Q13952),inactive: 0.019,inactive: 0.046,inactive: 0.017,inactive: -0.016,inactive: 0.008,inactive: 0,inactive: 0.067,inactive: 0.037,inactive: 0.04,inactive: 0.064,inactive: -0.021,inactive: 0.016,inactive: 0.024,inactive: -0.017,inactive: 0.006,inactive: -0.001,inactive: -0.02,inactive: 0.019,inactive: 0.037,inactive: 0.01
NISCH (UniProt Q9Y2I1),inactive: 0.026,inactive: -0.06,inactive: -0.036,inactive: 0.024,inactive: -0.03,inactive: -0.065,inactive: -0.001,inactive: 0.002,inactive: 0.008,inactive: -0.037,inactive: 0.029,inactive: 0.014,inactive: 0.003,inactive: -0.041,inactive: 0.049,inactive: -0.013,inactive: 0.024,inactive: 0.036,inactive: 0.02,inactive: 0.012
NDUFA10 (UniProt O95299),inactive: -0.098,inactive: -0.001,inactive: -0.044,inactive: -0.065,inactive: 0.02,inactive: -0.103,inactive: 0.04,inactive: -0.037,inactive: 0.065,inactive: 0.116,inactive: 0.002,inactive: 0.054,inactive: -0.086,inactive: 0.02,inactive: 0.002,inactive: 0.039,inactive: 0,inactive: 0.023,inactive: 0.183,inactive: 0.105
NDUFA4 (UniProt O00483),inactive: 0.124,inactive: 0.017,inactive: 0.02,inactive: 0.009,inactive: 0.059,active: -0.294,inactive: -0.01,inactive: 0.02,inactive: 0,inactive: -0.026,inactive: 0.062,inactive: 0.058,inactive: 0.043,inactive: 0.16,inactive: -0.007,inactive: 0.104,inactive: 0.031,inactive: -0.065,inactive: 0.08,inactive: 0.019
NDRG2 (UniProt Q9UN36),inactive: -0.014,inactive: -0.001,inactive: 0.021,inactive: 0.035,inactive: 0.015,inactive: -0.01,inactive: -0.031,inactive: -0.05,inactive: 0.046,inactive: -0.028,inactive: 0.035,inactive: -0.015,inactive: 0.014,inactive: 0.019,inactive: -0.014,inactive: -0.03,inactive: 0.003,inactive: -0.02,inactive: 0,inactive: -0.003

# Rewritten as tab-separated lines: part of the list above
Target	log2 fold change [1]	log2 fold change [2]	log2 fold change [3]	log2 fold change [4]	log2 fold change [5]	log2 fold change [6]	log2 fold change [7]	log2 fold change [8]	log2 fold change [9]	log2 fold change [10]	log2 fold change [11]	log2 fold change [12]	log2 fold change [13]	log2 fold change [14]	log2 fold change [15]	log2 fold change [16]	log2 fold change [17]	log2 fold change [18]	log2 fold change [19]	log2 fold change [20]
NDUFAF7 (UniProt Q7L592)	inactive: 0.035	inactive: -0.045	inactive: -0.047	inactive: 0.027	inactive: -0.07	inactive: -0.065	inactive: 0.074	inactive: 0.016	inactive: 0.006	inactive: -0.012	inactive: 0.068	inactive: -0.06	inactive: 0	inactive: 0.016	inactive: -0.026	inactive: 0.002	inactive: -0.01	inactive: 0.01	inactive: -0.03	inactive: 0.014
NEDD8 (UniProt Q15843)	inactive: 0.04	inactive: 0.028	inactive: 0.041	inactive: 0.19	inactive: 0.019	inactive: -0.062	inactive: 0.06	inactive: -0.049	inactive: -0.117	inactive: -0.107	inactive: 0.004	inactive: -0.073	inactive: 0.027	inactive: 0.103	inactive: -0.034	inactive: 0.034	inactive: 0.066	inactive: -0.038	inactive: -0.057	inactive: 0.018
